Patent US20240207265A1, “TREATMENT OF CNS DISEASES WITH sGC STIMULATORS” (Tisento Therapeutics Inc., priority 2021, published 2024)
“Also recorded” adds a separate entry of the source. For at least one compound, name, drawing or mass did not settle the structure.

Test system: MK-801-induced memory deficit
Assay: Novel Object Recognition (NOR) test, MK-801-induced memory disruption
Format: in vivo, rat
Conditions: for Recognition Index vs MK-801 control group: 1 mg/kg IP 15 min prior to training, MK-801 0.1 mg/kg
Method: In the present study, a memory saving model was used. MK-801 (Dizocilpine), an uncompetitive antagonist of the NMDA receptor was used to cause deficit of recognition memory. sGC stimulators were evaluated for their efficacy to prevent memory impairment induced by MK-801.
Adult male Long-Evans rats (275-299 gram at arrival from Envigo, Indianapolis, IN) were used in this study. Rats were placed in the experimental rooms and assigned unique identification numbers (tail marks). Rats were housed 2 per cage in polycarbonate cages with filter tops and acclimated for at least 7 days prior to testing. Animal room was maintained in a 12/12 h light/dark cycle (lights on at 07.00 EST), 22±1° C. and relative humidity at approximately 50%. Food and water were provided ad libitum. All animals were examined, handled and weighed prior to the study to assure adequate health and to minimize the non-specific stress associated with testing. Each animal was randomly assigned across the treatment groups. The experiments were conducted during the animal's light cycle phase.
MK-801 (0.1 mg/kg; Sigma-Aldrich) was dissolved in saline and injected IP, 15 min prior to NOR training. The dose volume was 1 ml/kg.
Galantamine (1 mg/kg; Tocris) was dissolved in saline and injected IP, 15 minutes prior to training. The dose volume was 1 ml/kg.
Compound I-20 (0.03, 0.3 and 1 mg/kg) was formulated in vehicle (0.5% (w/w) methyl cellulose and 0.5% (w/w) Tween 80 in ultrapure water) and orally dosed 60 min prior to NOR training at 2 ml/kg dose volume.
Compound I-14 (0.01, 0.1 and 1 mg/kg) was formulated as its Na+ salt as a solution in MilliQ water and stored as frozen aliquots. […]
NOR test was conducted in an open-field arena (40×40 cm) placed in a sound-attenuated room under dimmed lighting. […] All training and testing trials were video-taped and scored by an observer blind to treatments.
On Days 1 and 2, rats were allowed to freely explore the arena (no objects inside) for a 5-minute habituation period. […] Each rat was placed in the arena facing the same direction at the same position, and the time spent actively exploring the objects during a 3-minute training period (T1) was recorded. […] Each rat was placed back into the test arena in the presence of one familiar object and one novel object for 5 minutes, and the time spent exploring both objects was recorded. […]
Data of NOR test (T2) were expressed as Recognition Index, which is defined as the ratio of the time spent exploring the novel object over the total time spent exploring both objects (Novel/(Familiar+Novel)×100%) during the test session.
For Compound I-14, data were analyzed in two batches separately. […] Data were analyzed with t-test to evaluate the validity of the test. […]

COc1ccc2c3c1O[C@H]1C[C@@H](O)C=C[C@@]31CCN(C)C2 [Galantamine, reference compound]
Recognition Index vs MK-801 control group (0-1 minute time range): significant different; also recorded: significantly higher recognition index | Recognition Index vs MK-801 control group (0-3 minute time range): significant different; also recorded: significantly reversed MK-801-induced memory deficits | Recognition Index vs MK-801 control group (0-5 minute time range): significant different; also recorded: significantly reversed MK-801-induced memory deficits | reversal of cognitive deficit induced by MK-801 (1 mg/kg (i.p.), MK-801 0.1 mg/kg (i.p.), time range not stated): significantly reversed the cognitive deficit
